Measurements as given in PMC6491619, “Development and application of a high-content virion display human GPCR array” (Nature Communications, 2019).
These are yes or no findings as the source states them, for the method shown. Some entries that bind do so weakly or less than the wild type.

Chains of the proteins cited; added tags and fusions are not shown. Lines headed by an entry give the natural chain unless they say otherwise; changes in a name come on top.
UniProt Q969F8: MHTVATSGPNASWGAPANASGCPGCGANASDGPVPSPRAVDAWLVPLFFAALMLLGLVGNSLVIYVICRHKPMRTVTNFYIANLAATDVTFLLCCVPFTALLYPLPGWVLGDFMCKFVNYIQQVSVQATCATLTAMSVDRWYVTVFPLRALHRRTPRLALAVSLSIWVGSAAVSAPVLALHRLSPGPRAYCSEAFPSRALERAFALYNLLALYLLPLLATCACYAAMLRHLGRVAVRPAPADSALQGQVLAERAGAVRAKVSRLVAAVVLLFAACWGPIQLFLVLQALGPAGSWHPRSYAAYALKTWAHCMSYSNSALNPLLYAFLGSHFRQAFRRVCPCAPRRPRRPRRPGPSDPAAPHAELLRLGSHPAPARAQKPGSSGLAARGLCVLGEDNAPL
UniProt P61278: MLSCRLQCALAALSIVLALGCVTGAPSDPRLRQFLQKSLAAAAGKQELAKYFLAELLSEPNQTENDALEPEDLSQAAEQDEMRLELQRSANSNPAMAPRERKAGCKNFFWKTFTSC

Legend:
VirD-KISS1R (human) [1] = target: VirD-KISS1R (human) (UniProt Q969F8); test: peptide or protein array; VirD-GPCR array: purified virions printed on epoxy slides, blocked with 3% BSA PBS; Cy5-Dynorphin A (8 uM) or Cy3-SRIF-14 (8 uM) in HEPES buffer for 1 h; Z-scores; only the binder purified
VirD-NTSR1 (human) [2] = target: VirD-NTSR1 (human) (UniProt P30989); test: as above
VirD-GABBR2 (human) [3] = target: T1, VirD-GABBR2 (human) (UniProt O75899); test: as above
T1 sequence: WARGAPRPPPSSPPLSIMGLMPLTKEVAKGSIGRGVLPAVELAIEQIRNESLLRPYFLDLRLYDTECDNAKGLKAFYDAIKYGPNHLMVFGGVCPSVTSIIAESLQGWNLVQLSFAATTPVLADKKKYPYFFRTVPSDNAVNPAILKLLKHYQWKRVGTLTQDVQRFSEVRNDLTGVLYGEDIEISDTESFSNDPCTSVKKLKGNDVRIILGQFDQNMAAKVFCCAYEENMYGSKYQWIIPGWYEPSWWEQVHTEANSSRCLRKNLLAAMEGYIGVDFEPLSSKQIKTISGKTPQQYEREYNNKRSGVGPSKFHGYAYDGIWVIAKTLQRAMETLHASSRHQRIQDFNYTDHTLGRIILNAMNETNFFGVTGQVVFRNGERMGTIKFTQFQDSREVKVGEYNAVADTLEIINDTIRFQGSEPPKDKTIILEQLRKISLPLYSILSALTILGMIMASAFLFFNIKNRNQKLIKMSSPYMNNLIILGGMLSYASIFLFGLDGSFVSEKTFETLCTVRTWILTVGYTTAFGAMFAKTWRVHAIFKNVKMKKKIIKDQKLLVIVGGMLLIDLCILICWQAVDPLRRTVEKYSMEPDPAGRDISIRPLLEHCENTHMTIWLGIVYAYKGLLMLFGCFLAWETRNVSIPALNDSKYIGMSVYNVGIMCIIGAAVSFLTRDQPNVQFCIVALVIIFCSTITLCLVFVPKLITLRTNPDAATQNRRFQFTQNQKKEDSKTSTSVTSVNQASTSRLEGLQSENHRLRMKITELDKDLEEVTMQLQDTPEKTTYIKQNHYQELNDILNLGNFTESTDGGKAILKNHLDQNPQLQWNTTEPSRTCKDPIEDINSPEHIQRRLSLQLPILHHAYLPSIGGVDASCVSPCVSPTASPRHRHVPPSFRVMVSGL

VirD-KISS1R (human) [4] = target: VirD-KISS1R (human) (UniProt Q969F8); test: fluorescent ligand binding to infected cells; Vero cells infected with HSV-GPCR virus (MOI ~10, 16 h), blocked in 3% BSA PBS; labeled SRIF-14 at 8 uM without or with cold SRIF-14 (800 uM) or cyclosomatostatin (800 uM); signals normalized to K082-infected cells; only the binder purified
VirD-NTSR1 (human) [5] = target: VirD-NTSR1 (human) (UniProt P30989); test: as above
VirD-GABBR2 (human) [6] = target: T1, VirD-GABBR2 (human); test: as above

Measured: binding

Cy3-labeled SRIF-14 (from UniProt P61278 103-116) (peptide)
binds: VirD-KISS1R (human) [1] | VirD-NTSR1 (human) [2] | VirD-GABBR2 (human) [3]

Cy5-labeled SRIF-14 (from UniProt P61278 103-116) (peptide)
binds: VirD-KISS1R (human) [4] | VirD-NTSR1 (human) [5] | VirD-GABBR2 (human) [6]
